PubChem BioAssay AID504764 | Drosophila RNAi Screening Center – 2011
Aim: 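Genome-wide screen for regulators of Notch-driven gene expression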 (primary screen). Cell system: Drosophila Kc167 cells. Reagent: long dsRNA against Drosophila genes. Timing: about 5 days (4 days dsRNA, then 24 h after transfection). Challenge: transfection of constitutively active membrane-tethered Notch lacking the extracellular domain, read 24 h later. Detection: 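Firefly luciferase from an E(spl)m3 reporter with active Notch, plus control-promoter and uninduced reporter wells for normalisation; unnormalised counts, duplicate wells a and b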. Direction: induced reporter light, run 1, well a and induced reporter light, run 1, well b: higher = more light from the Notch target reporter with active Notch; control promoter light, run 1, well a and control promoter light, run 1, well b: higher = more light from the viral control promoter (cell number, transfection, viability); uninduced reporter light, run 1, well a: higher = more light from the Notch target reporter without active Notch. Active means: 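Wells with low control signal or poorly matching duplicates excluded; duplicates averaged; per source plate, z beyond ±2 for induced/control log2 ratio or beyond ±1.8 for induced/uninduced marks a hit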. Calls: active = modifier hit (raised or lowered Notch signal); inactive = not a hit.
In all, the deposit lists about 22,000 reagents; below is a random part of those that have a named target and a result. In the full data, 403 (1.9%) got an active call. 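Unnormalised raw counts per well; ratio z-scores behind the hit calls and whether each hit raises or lowers signal are not deposited.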 A number with no mark means an inactive call. Not stated in the record: the amount of reagent.

CG14357 (GeneID 41716) — induced reporter light, run 1, well a: 2.75e5; induced reporter light, run 1, well b: 2.53e5; control promoter light, run 1, well a: 2.50e5; control promoter light, run 1, well b: 2.65e5; uninduced reporter light, run 1, well a: 21665
Drat (GeneID 35687) — induced reporter light, run 1, well a: 2.09e5; induced reporter light, run 1, well b: 1.46e5; control promoter light, run 1, well a: 1.56e5; control promoter light, run 1, well b: 1.74e5; uninduced reporter light, run 1, well a: 17010
CG42741 (GeneID 37654) — induced reporter light, run 1, well a: 1.49e5; induced reporter light, run 1, well b: 1.23e5; control promoter light, run 1, well a: 1.48e5; control promoter light, run 1, well b: 1.56e5; uninduced reporter light, run 1, well a: 11130
Ir87a (GeneID 41654) — induced reporter light, run 1, well a: 2.74e5; induced reporter light, run 1, well b: 2.49e5; control promoter light, run 1, well a: 1.67e5; control promoter light, run 1, well b: 2.32e5; uninduced reporter light, run 1, well a: 16320
Nup160 (GeneID 34549) — induced reporter light, run 1, well a: 65110; induced reporter light, run 1, well b: 90735; control promoter light, run 1, well a: 46725; control promoter light, run 1, well b: 57875; uninduced reporter light, run 1, well a: 8495
ND-20L (GeneID 43477) — induced reporter light, run 1, well a: 1.15e5; induced reporter light, run 1, well b: 91385; control promoter light, run 1, well a: 1.43e5; control promoter light, run 1, well b: 1.58e5; uninduced reporter light, run 1, well a: 10215
Topors (GeneID 37188) — induced reporter light, run 1, well a: 1.17e5; induced reporter light, run 1, well b: 93195; control promoter light, run 1, well a: 1.49e5; control promoter light, run 1, well b: 1.80e5; uninduced reporter light, run 1, well a: 9425
CG3045 (GeneID 37531) — induced reporter light, run 1, well a: 1.64e5; induced reporter light, run 1, well b: 2.21e5; control promoter light, run 1, well a: 1.69e5; control promoter light, run 1, well b: 2.07e5; uninduced reporter light, run 1, well a: 14740
hook (GeneID 35169) — induced reporter light, run 1, well a: 2.09e5; induced reporter light, run 1, well b: 1.82e5; control promoter light, run 1, well a: 1.81e5; control promoter light, run 1, well b: 1.79e5; uninduced reporter light, run 1, well a: 14515
CG13312 (GeneID 39010) — induced reporter light, run 1, well a: 1.88e5; induced reporter light, run 1, well b: 1.78e5; control promoter light, run 1, well a: 2.34e5; control promoter light, run 1, well b: 2.31e5; uninduced reporter light, run 1, well a: 11490
Mkrn1 (GeneID 44131) — induced reporter light, run 1, well a: 1.47e5; induced reporter light, run 1, well b: 1.41e5; control promoter light, run 1, well a: 1.73e5; control promoter light, run 1, well b: 1.30e5; uninduced reporter light, run 1, well a: 8685
ocn (GeneID 43567) — induced reporter light, run 1, well a: 1.15e5; induced reporter light, run 1, well b: 1.18e5; control promoter light, run 1, well a: 1.56e5; control promoter light, run 1, well b: 1.58e5; uninduced reporter light, run 1, well a: 10820
inaC (GeneID 36897) — induced reporter light, run 1, well a: 1.23e5; induced reporter light, run 1, well b: 1.04e5; control promoter light, run 1, well a: 2.27e5; control promoter light, run 1, well b: 2.56e5; uninduced reporter light, run 1, well a: 9390
scrt (GeneID 38469) — induced reporter light, run 1, well a: 10365; induced reporter light, run 1, well b: 8680; control promoter light, run 1, well a: 15388; control promoter light, run 1, well b: 20475; uninduced reporter light, run 1, well a: 2805
Vps36 (GeneID 39523) — induced reporter light, run 1, well a: 2.00e5; induced reporter light, run 1, well b: 1.74e5; control promoter light, run 1, well a: 2.90e5; control promoter light, run 1, well b: 2.36e5; uninduced reporter light, run 1, well a: 9935
CG32266 (GeneID 317945) — induced reporter light, run 1, well a: 1.70e5; induced reporter light, run 1, well b: 2.13e5; control promoter light, run 1, well a: 2.17e5; control promoter light, run 1, well b: 1.91e5; uninduced reporter light, run 1, well a: 15140
CG32023 (GeneID 317827) — induced reporter light, run 1, well a: 2.09e5; induced reporter light, run 1, well b: 1.82e5; control promoter light, run 1, well a: 1.43e5; control promoter light, run 1, well b: 1.33e5; uninduced reporter light, run 1, well a: 12900
CheB38a (GeneID 2768934) — induced reporter light, run 1, well a: 38730; induced reporter light, run 1, well b: 24465; control promoter light, run 1, well a: 38940; control promoter light, run 1, well b: 27620; uninduced reporter light, run 1, well a: 1705

2 entries from above, reformatted:
gene knocked down	induced reporter light, run 1, well a	induced reporter light, run 1, well b	control promoter light, run 1, well a	control promoter light, run 1, well b	uninduced reporter light, run 1, well a
Vps36 (GeneID 39523)	2.00e5	1.74e5	2.90e5	2.36e5	9935
CG32266 (GeneID 317945)	1.70e5	2.13e5	2.17e5	1.91e5	15140
